In paper PMC7957392, “Yeast translation elongation factor eEF3 promotes late stages of tRNA translocation” (The EMBO Journal, 2021) one finds binding data, which are given here for two substances.

By UniProt entry, the sequences of proteins in these tests, tags left out. Where a name states a change or a piece, a line headed by the entry shows the natural chain unless it says otherwise.
UniProt P0C0W9: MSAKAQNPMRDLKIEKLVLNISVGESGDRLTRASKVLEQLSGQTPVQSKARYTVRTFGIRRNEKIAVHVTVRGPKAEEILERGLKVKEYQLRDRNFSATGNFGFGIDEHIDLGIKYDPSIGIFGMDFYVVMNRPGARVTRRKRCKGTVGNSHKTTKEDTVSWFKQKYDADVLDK
UniProt P07280: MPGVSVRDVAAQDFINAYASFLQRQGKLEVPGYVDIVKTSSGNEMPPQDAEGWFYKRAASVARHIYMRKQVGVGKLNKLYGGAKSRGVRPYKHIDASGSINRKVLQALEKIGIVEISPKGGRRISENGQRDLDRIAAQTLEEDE

In the experiment the target is T1, eEF3 (yeast translation elongation factor 3), C-terminally TAP-tagged (S. cerevisiae) (UniProt P16521).
T1 sequence: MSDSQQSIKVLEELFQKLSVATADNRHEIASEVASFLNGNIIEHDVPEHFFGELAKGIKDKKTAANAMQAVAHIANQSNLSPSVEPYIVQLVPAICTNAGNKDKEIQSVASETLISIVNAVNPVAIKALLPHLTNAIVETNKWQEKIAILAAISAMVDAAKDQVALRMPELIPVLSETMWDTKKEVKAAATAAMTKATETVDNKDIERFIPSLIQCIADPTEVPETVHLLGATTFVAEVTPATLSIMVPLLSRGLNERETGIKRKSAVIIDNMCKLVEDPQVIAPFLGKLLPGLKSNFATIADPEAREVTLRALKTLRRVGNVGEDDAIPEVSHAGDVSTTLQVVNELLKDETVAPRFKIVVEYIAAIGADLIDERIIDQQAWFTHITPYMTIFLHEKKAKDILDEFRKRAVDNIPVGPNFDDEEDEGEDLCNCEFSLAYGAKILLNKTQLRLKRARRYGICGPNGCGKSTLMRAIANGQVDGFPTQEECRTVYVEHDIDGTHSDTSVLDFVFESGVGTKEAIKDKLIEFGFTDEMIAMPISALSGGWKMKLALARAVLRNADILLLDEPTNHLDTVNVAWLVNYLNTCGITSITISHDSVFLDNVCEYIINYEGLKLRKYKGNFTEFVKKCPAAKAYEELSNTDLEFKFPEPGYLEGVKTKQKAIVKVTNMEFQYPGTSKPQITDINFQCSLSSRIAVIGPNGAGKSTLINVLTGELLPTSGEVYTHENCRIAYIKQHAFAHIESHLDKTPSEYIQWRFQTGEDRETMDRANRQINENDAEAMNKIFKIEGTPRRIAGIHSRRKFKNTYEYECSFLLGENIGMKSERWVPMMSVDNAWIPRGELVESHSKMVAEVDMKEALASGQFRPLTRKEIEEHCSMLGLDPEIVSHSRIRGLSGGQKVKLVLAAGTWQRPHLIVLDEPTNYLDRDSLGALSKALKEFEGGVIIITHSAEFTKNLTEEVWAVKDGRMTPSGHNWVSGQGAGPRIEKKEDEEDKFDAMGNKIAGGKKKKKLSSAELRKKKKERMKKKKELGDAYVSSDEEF
The experiment in a line: cryo-EM structure; native eEF3-80S complex from the eEF3-TAP pull-out, eluted with TEV protease in buffer 30 with 1 mM ADPNP, cross-linked with 0.02% glutaraldehyde; group I particles sorted with a mask on eEF3, 3.3 Å, multi-body refinement.

No constants are given. Whether binding was seen depends on the method and setting. A result given as binding can be weak or reduced; the word gives no strength. Where a sequence is shown, tags or fusion partners need not be part of it.

Turning to “ribosomal protein uL5 (60S subunit) (from UniProt P0C0W9)”, the binding entry is recorded as “binds”.

Take “ribosomal protein eS19 (40S subunit head) (from UniProt P07280)”: the binding result is listed as “binds”.
